According to the supplement of paper PMC3334620:
Over roughly 33,000 sequences, “E-score (-0.5 to 0.5)” has its median near -0.0014; the highest 2% begin near 0.25. This is one part of the list.

The sequences below were run against T1, Cad1 (UniProt P24813) (assay: PBM E-score (8-mer binding enrichment) (E-score (-0.5 to 0.5)); higher = stronger / more preferred TF binding). Details: protein concentration: 100 nM; construct: GST-full length.
T1 sequence: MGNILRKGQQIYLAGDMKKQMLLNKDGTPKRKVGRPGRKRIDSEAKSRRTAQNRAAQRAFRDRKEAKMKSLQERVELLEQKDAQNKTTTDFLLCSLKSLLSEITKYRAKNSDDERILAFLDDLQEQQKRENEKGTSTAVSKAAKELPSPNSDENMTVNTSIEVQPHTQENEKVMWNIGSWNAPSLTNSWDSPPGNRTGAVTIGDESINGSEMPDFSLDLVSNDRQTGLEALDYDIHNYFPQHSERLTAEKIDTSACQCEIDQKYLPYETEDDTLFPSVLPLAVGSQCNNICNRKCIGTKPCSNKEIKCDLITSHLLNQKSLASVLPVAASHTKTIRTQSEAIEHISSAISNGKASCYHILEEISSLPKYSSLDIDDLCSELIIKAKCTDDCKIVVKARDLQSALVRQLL
Method: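 Universal 'all 10-mer' protein binding microarrays (Agilent AMADID 015681) probed with GST-tagged S. cerevisiae TFs (full-length or DBD) made by in vitro transcription/translation (PURExpress), about 100-200 nM. Bound TF was detected with fluorescent anti-GST. Each ungapped 8-mer (which stands for itself and its reverse complement) is scored by the PBM enrichment score (E-score), a modified Wilcoxon-Mann-Whitney statistic from -0.5 to +0.5, computed with the Universal PBM Analysis Suite. Scale: above 0.35 generally sequence-specific binding.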

Sequence | PBM E-score
AGACCCTG | -0.0768
AACATGCA | 0.0925
GCGAAAAA | 0.242
AGACGGCC | -0.0104
CAAATTGG | 0.217
AAATGGGA | -0.167
AGGGGTTA | -0.176
GCCTTCAC | 0.0863
CACTTTGG | 0.0247
TCGATAAA | 0.0919
AGACCTAC | 0.0186
CATCTAAG | -0.0246
ACACCGTG | 0.00204
AATGGCGA | 0.0549
CCGGTTGC | 0.237
CACACATG | -0.164
GAGAGCGA | -0.0855
AATTCGTA | 0.0688
CCTTTGCC | -0.288
GTGCTTTA | 0.0851
CGTTGCAG | -0.0504
ACATTAGA | -0.141
CCTAATAG | -0.0644
GGTGTGAA | 0.174
TCTAGACA | 0.107

Sequence | PBM E-score
CCGTGCGA | 0.0484
CTGAAAGA | 0.0278
CTTCATAC | -0.0266
ATCAACAC | 0.179
ACATCTAG | -0.0478
AGTGGAAA | -0.0817
AAGCAGAC | -0.0154
GCCTTCGA | -0.0191
GGCAATAC | 0.0742
CGAGACCG | 0.0389
AACTCCTG | -0.00382
TATCTCAA | 0.102
AACCGATA | 0.176
GATTTGCA | 0.215
ACCATGGC | 0.234
CTTATCCA | 0.127
CCATCCCG | -0.046
AAAAGATA | 0.0416
GTCACACA | 0.018
ACTACTAT | 0.253
ATAGGCAT | -0.202
CTGTCAAA | -0.0384
CGTGGATC | 0.00251
GATGGCGC | -0.0508
TAATTCAA | 0.245

A second format for some results above:
Sequence,PBM E-score
CTGTCAAA,-0.0384
CGTGGATC,0.00251

(further entries)

Sequence | PBM E-score
GACTCGAA | -0.0678
ACGTAAGA | 0.199
GAGCTCTA | 0.0699
CGCCTGGA | -0.0144
AATCAACA | 0.275
CTTGAGCC | -0.221
GCGAGTCC | -0.129
CTGTCGCC | -0.029
ATCGGGCC | -0.142
ATTTTCGC | 0.159
CTGGCACA | -0.108
ATGGGATG | -0.116
ACCTAAGG | -0.0442
GCCAGGCC | -0.0246
AACTCAAC | 0.19
GTCATCAA | 0.16
CAAATGAC | -0.0259
GCGTAGTA | -0.133
AATAGCAC | -0.125
GCGGCACA | 0.0291
GACCCGGC | -0.0968
AAGCGAGA | -0.0332
ACCTCGGA | 0.173
AGCAAACG | -0.0955
ATGAGCGA | 0.109

Sequence | PBM E-score
GTTTAGCA | 0.139
ATTTAACC | -0.242
TCTACAGA | -0.127
CACGTTGA | 0.064
GGTTCGGA | -0.0853
AGTTAGGC | -0.0521
AACGTCAT | 0.0428
ACGTCCGG | -0.0325
AGCATCAA | 0.104
ACGCTGAA | 0.0691
GGGCTTTA | -0.21
CACTTGTC | 0.0541
AGTCCCGA | -0.0735
CTCGCTGC | 0.19
GTCCAACA | 0.0641
CTTATGGC | -0.0903
AAGACCGT | -0.291
TAACTCCA | -0.101
GCGCCTCC | -0.0411
CTAGCCGA | -0.0822
AGGTTCAA | 0.0308
ATAGTAGG | 0.081
CTTCACAC | -0.0388
GTTGAAAC | 0.0575
TGGCACAA | -0.118

Sequence | PBM E-score
ATAACTGA | 0.19
GGGCGGAC | -0.12
TACCTAAA | 0.154
CTGTGCGC | 0.0788
CCATTAAC | 0.131
AGACTCTC | -0.0591
GAGTAATA | 0.198
ACATTACT | 0.139
AAGAAGCC | 0.182
CGAGATTA | 0.198
TCGTGGAA | 0.123
CCAAGAGA | 0.0142
AGATGCGA | -0.0722
CTCCGGGA | -0.102
CATCTGCG | 0.0102
CCCTCTCC | -0.36
ATATGTGA | 0.121
CCGACAAG | -0.0166
CCAGTGGA | -0.184
AGTTGAAA | -0.0414
CGTTTTGA | 0.0158
AGAAATTG | 0.105
ACGAGCAC | 0.0382
ACCTTCAA | 0.0663
CCATCTCA | 0.0619

No new results follow: an excerpt of the list.
Sequence | PBM E-score
ATCGGGCC | -0.142
ATTTTCGC | 0.159
CTGGCACA | -0.108
ATGGGATG | -0.116
ACCTAAGG | -0.0442

Additional records follow.

Sequence | PBM E-score
CAAGTCGC | -0.192
AATTTTAG | 0.149
AGTGCGGC | 0.0577
ATACGCTC | -0.0019
CTACTCTC | -0.202
CCATCGCA | -0.109
GGCCTATA | -0.32
CCTTTCGC | -0.163
CGTTGGTC | -0.0447
CGCCCGCG | -0.0942
CGGGTACA | -0.135
CACCGTAG | -0.218
ACTCCTAT | -0.102
AAGACCCA | -0.24
AGTGGGAT | -0.0954
CCTTCCCA | 0.0189
CCAGAAGC | -0.248
TAATCTAA | 0.0157
GATACGGC | 0.014
CTAATACA | 0.166
AAATAACA | 0.0616
GCACACGC | -0.0434
CCATCAAA | 0.155
CAGATCAA | -0.0742
GCCAAGCA | -0.00197

Two records drawn at random from those above, as already listed:
Sequence | PBM E-score
TAATCTAA | 0.0157
GCACACGC | -0.0434

(further entries)

Sequence | PBM E-score
ATAGCCCC | -0.373
ACGTCAGA | 0.0312
CGGTGAAG | -0.114
AAGCCTTC | -0.251
CTGGACTC | -0.0752
GTATCATA | 0.288
ATAGCATG | -0.181
GGATAAAA | 0.164
AGACACAC | 0.0545
CACGACAC | 0.0261
CCACAAGA | -0.0947
CCGGCGGC | -0.13
AGGTGCGC | -0.00349
CGAACCCC | -0.191
ATGTTGTC | 0.143
GCGACAAC | 0.0879
AAGTAACC | 0.057
GAATTCTA | 0.191
GTACTCCA | -0.162
GAAGTTCC | -0.0702
CCAACGAA | 0.135
CTGAACCC | -0.106
